The other results are listed elsewhere or left out. These are raw signals, not scaled to a control.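 In the initial screen, polymyxin B was used at a concentration that permeabilizes Salmonella's outer membrane but not its inner membrane. Maximum growth was set by DMSO wells with or without polymyxin B. Since plates varied, data were ranked per plate, and compounds giving the lowest OD600 advanced as hits.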
Test system: Salmonella enterica serovar Typhimurium SL1344
Experiment: bacterial growth OD600 after 18 h with compound and polymyxin B; higher = more bacterial growth (less inhibition)
Details: 50 µM, Mueller-Hinton broth

SMILES | bacterial growth OD600 (polymyxin B 1 µg/mL) | bacterial growth OD600 (polymyxin B 0.75 µg/mL)
Cc1c[nH]c(CNC(=O)c2cc(CN3CCC(Cc4ccccc4)CC3)on2)n1 | 0.857 | –
O=C(CCC1(Cc2ccc(Cl)cc2)CCC(=O)N1)NCc1cnn(-c2cccc(F)c2)c1 (configuration not stated) | – | 0.814
COc1cccc(CC(C2CCN(Cc3cccc(OCCO)c3)CC2)N(C)C(=O)c2ccco2)c1 (configuration not stated) | – | 0.969
Cn1ccc(CC(=O)N2CCC(C3CCN(Cc4cccnc4)CC3)C2)c1 (configuration not stated) | – | 0.861
CCN1CCN(C2(C(=O)NCCCC(=O)OC)Cc3ccccc3C2)CC1 | – | 0.83
Cc1nc(CN2CCN(c3nc4nonc4nc3NC3CCCC3)CC2)cs1 | 0.87 | –
COc1cc(N2C[C@H]3OC(=O)N(CCCc4ccc(F)cc4)[C@H]3C2)ncn1 | 0.781 | –
CSCC(=O)NC1CC(=O)N(Cc2cccc(F)c2)C1 (configuration not stated) | 0.808 | –
O=C(CC1(c2ccccc2Cl)CC(=O)N(C2CCCC2)C1=O)N1CCCCCC1 (configuration not stated) | – | -0.001
O=C(CC1=CCCCC1)N1CCCC(Nc2ccc(F)cc2)C1 (configuration not stated) | 0.881 | –
CC(C)(C)NC(=O)NCc1cccnc1Oc1ccc(F)cc1F | 0.685 | –
O=C(COc1ccccc1)N[C@@H]1c2ccccc2C2(CCN(Cc3c(F)ccc(F)c3F)CC2)[C@H]1O | – | 0.79
Cc1ccc(OCCN(C)C(=O)C2CC23CCN(C2CCSC2)CC3)cc1 (configuration not stated) | – | 0.86
CN(C)CCN1C(=O)NC(Cc2cccc(F)c2)(C2CCN(C(=O)C3=CCCCC3)CC2)C1=O (configuration not stated) | – | 0.771
CC(=O)NCCC(=O)N1CCCC(N2CCN(c3cccc(C(F)(F)F)c3)CC2)C1 (configuration not stated) | 0.95 | –
O=C(NCCN1Cc2ccccc2OC(c2ccsc2)C1)c1ccc(Cn2cnnn2)cc1 (configuration not stated) | – | 0.809

Rewritten as labelled records: 2 of the compounds above
Cc1c[nH]c(CNC(=O)c2cc(CN3CCC(Cc4ccccc4)CC3)on2)n1
  bacterial growth OD600 (polymyxin B 1 µg/mL): 0.857
O=C(CCC1(Cc2ccc(Cl)cc2)CCC(=O)N1)NCc1cnn(-c2cccc(F)c2)c1 (configuration not stated)
  bacterial growth OD600 (polymyxin B 0.75 µg/mL): 0.814

Further records follow:

SMILES | bacterial growth OD600 (polymyxin B 1 µg/mL) | bacterial growth OD600 (polymyxin B 0.75 µg/mL)
COc1ccc(C(CC(=O)N2CCN(C)CC2)c2ccccc2)cc1 (configuration not stated) | 0.862 | –
CCC1CN(C(=O)c2ccc(F)cc2)Cc2ccc(Cl)cc2O1 (configuration not stated) | – | 0.393
O=C(c1ccc(Cl)cc1OC1CCN(Cc2cccc(O)c2)CC1)N1CCCCC1 | 0.818 | –
COc1ccccc1OCc1cc(C(=O)N2CCN(C)C[C@@H]2c2ccccc2)n[nH]1 | 0.901 | –
CC(C)S(=O)(=O)NCc1cccnc1Oc1ccc(F)c(F)c1 | – | 0.775
O=C(NCCCn1ncc2ccccc21)C1CCC(=O)N(CCN2CCOCC2)C1 (configuration not stated) | 0.821 | –
O=C1O[C@@H]2CN(c3cnccn3)C[C@@H]2N1CCc1ccc(F)cc1 | – | 1
CSc1ccccc1C(=O)NCc1c(C)ncc2c1CCN(C(=O)C1COc3ccccc3O1)C2 (configuration not stated) | – | 0.804
COc1ccccc1OC1CCN(C(=O)C2CCN(c3nc(C)c4cc(F)ccc4n3)CC2)CC1 | – | 0.749
O=S(=O)(NCc1cccnc1Oc1ccccc1)c1ccccc1F | 0.914 | –
CCn1cc(CN2CCC(n3nccc3NC(=O)c3ccc4c(c3)OCO4)CC2)c(C)n1 | 0.863 | –
CC1CN(Cc2cnn(-c3ccccc3)c2)Cc2ccccc2O1 (configuration not stated) | – | 0.773
COc1cccc(-c2ccccc2NC(=O)C2CCN(CC=C(C)C)CC2)c1 | 1.01 | –
Cc1noc(C)c1CCCNC(=O)c1ccc(N2CCCC(CO)C2)nc1 (configuration not stated) | – | 0.796
O=C1NCCN(CCCc2ccccc2)C1CC(=O)N1CCCN(c2ncccn2)CC1 (configuration not stated) | – | 0.865
COC(=O)[C@]1(C)C[C@H](C(=O)NCC(C)(C)CO)[C@H](c2ccc(Cl)cc2)N1C | – | 0.82

— the supplement of paper PMC12889115
